Data: the supplement of paper PMC12578635
± gives the standard deviation of the averaged measurements. This is one part of the list. Most values come without repeats; read them as rough.

These compounds were tested on RAW 264.7 macrophages infected with S. aureus JE2-lux (assay: host macrophage viability (CellTiter-Fluor) relative to DMSO vehicle; higher = more viable host cells). Conditions: 10 µM; treatment time 4 h; gentamicin 50 µg/ml.

Row | Compound | host macrophage viability
1 | CCN(CC)C(=O)Cn1cc(S(=O)(=O)CC(=O)Nc2ccc(C(N)=O)cc2)c2ccccc21 | 121%
2 | COc1ccc(/C=c2\sc3nc(-c4ccncc4)nn3c2=O)cc1OC | 110%
3 | COc1cccc(CNc2ncnc3oc4c(c23)CCCC4)c1 | 110%
4 | COc1ccc(NC(=O)c2nnc(C3CCN(C(=O)Nc4ccc(C)c(Cl)c4)CC3)s2)cc1 | 107%
5 | CCc1cc2cc(C)ccc2nc1SCC(=O)Nc1c(C)[nH]c(=O)[nH]c1=O | 109%
6 | CCCC(=O)Nc1nc(-c2ccc(Cl)cc2)cc(-c2ccc(OC)cc2)n1 | 112%
7 | CN1C(=O)c2ccc(NC(=O)CCc3nc(CSc4nc5ccccc5s4)no3)cc2C1=O | 107%
8 | COc1ccc(NC(=O)c2ncoc2-c2ccccc2C(F)(F)F)c(OC)n1 | 103%
9 | Cc1nc2cc(NC(=O)c3ccc(S(=O)(=O)N(C)Cc4ccccc4)cc3)ccc2s1 | 108%
10 | COc1ccc2c(O)c(C(=O)NCC3CCCO3)cnc2c1 (stereo not drawn) | 111%
11 | CCOC(=O)c1cc(NC(=O)CSc2nc(C)nc3sc4c(c23)CCC4)cc(C(=O)OCC)c1 | 118.8 ± 0.44%
12 | CCOC(=O)c1ccc(NC(=O)CSc2nc3c(c(=O)n2-c2ccc(C)cc2)SCC3)cc1 | 101%
13 | CC1Cc2ccccc2N1Cc1cc(=O)c(OCC(=O)Nc2ccc(Cl)cc2)co1 (stereo not drawn) | 97.3%
14 | COc1ccc(Cl)c2sc(N(CCCn3ccnc3)C(=O)c3cccs3)nc12 | 127%
15 | CCc1cc(-c2csc(S(=O)(=O)NCc3ccccc3Cl)c2)on1 | 94.7%
16 | Cc1ccc2nc(Nc3cccc(O)c3)nc(-c3ccccc3)c2c1 | 144%
17 | CCOC(=O)Cn1c(=O)c2c(nc3n2CCCN3c2ccccc2OC)n(C)c1=O | 111%
18 | CCOC(=O)C1=C(C)N=c2s/c(=C/c3cccnc3)c(=O)n2C1c1cccs1 (stereo not drawn) | 103%
19 | CCOC(=O)c1[nH]c2ccccc2c1NC(=S)Nc1ccc(OC)cc1 | 122%
20 | Cc1sc2ncnc(SCC(=O)NC(Cc3ccccc3)C(=O)O)c2c1C (stereo not drawn) | 101%
21 | CCNS(=O)(=O)c1cc(-c2cc(C(=O)N3CCCC(C)C3)n[nH]2)ccc1OC (stereo not drawn) | 94.3%
22 | COc1ccc(-c2nsc(SCC(=O)Nc3ccc(OC)c(OC)c3)n2)cc1 | 100 ± 16%
23 | CCOC(=O)c1c(NC(=O)CC2Nc3cc(C)c(C)cc3NC2=O)sc(C)c1C (stereo not drawn) | 145%
24 | CCOC(=O)c1ccc(NC(=O)C2CC3CCCN3C23C(=O)N(C)c2ccccc23)cc1 (stereo not drawn) | 82.2%
25 | Cc1cc2c(=O)n(C)c(SCC(=O)c3ccccc3)nc2s1 | 111%
26 | Cc1ccc(S(=O)(=O)N2CCCC(C(N)=O)C2)cc1 (stereo not drawn) | 139%
27 | Cc1cc(C)n2nc(C(=O)NCCCc3nc4ccccc4[nH]3)cc2n1 | 108%
28 | CC(C)CN1N=C(c2ccccc2)Cn2c1nc1c2c(=O)n(CC(C)C)c(=O)n1C | 141%

Quoted at random: 2 entries already listed
Row | Compound | host macrophage viability
2 | COc1ccc(/C=c2\sc3nc(-c4ccncc4)nn3c2=O)cc1OC | 110%
6 | CCCC(=O)Nc1nc(-c2ccc(Cl)cc2)cc(-c2ccc(OC)cc2)n1 | 112%
